Experimental data: patent US10695322B2 (priority 2016, dated 2020)
At least one compound was matched to its structure with a doubt left.

Columns and labels:
M. tuberculosis [1] = conditions: mouse, in vivo; cited from earlier work
M. tuberculosis [2] = test system: M. tuberculosis; parameters: species or system BALB/c mice; conditions: mouse

| SMILES | activity in macrophages and mice infected with M. tuberculosis (M. tuberculosis [1]) | bactericidal activity in vivo (M. tuberculosis [2]) |
| --- | --- | --- |
| C[C@@H](O)[C@H]1C(=O)N2C(C(=O)O)=C(SCCN=CN)C[C@H]12 [imipenem] | limited activity |  |
| CO[C@H]1/C=C/O[C@@]2(C)Oc3c(C)c(O)c4c(O)c(c(/C=N/N5CCN(C)CC5)c(O)c4c3C2=O)NC(=O)/C(C)=C\C=C\[C@H](C)[C@H](O)[C@@H](C)[C@@H](O)[C@@H](C)[C@H](OC(C)=O)[C@@H]1C [rifampicin] |  | lacked bactericidal activity |
